Results reported in paper PMC5922973, “Topoisomerase VI senses and exploits both DNA crossings and bends to facilitate strand passage” (eLife, 2018).
For at least one entry, the source does not settle the construct or the ends of the probe. For some assays here: A weaker result is weaker than the reference pair of the same experiment. For some assays here: At least one verdict was read from the data and is not stated in words by the source.

Chains of the proteins cited; added tags and fusions are not shown. Chains listed by the source or under a name are the forms on record and can include a tag or linker.
topo VI Stalk/WKxY-AAA K399A,K401A,R457A (Methanosarcina mazei), one chain, as listed by the source K399A K401A R457A, chain 2 of 2: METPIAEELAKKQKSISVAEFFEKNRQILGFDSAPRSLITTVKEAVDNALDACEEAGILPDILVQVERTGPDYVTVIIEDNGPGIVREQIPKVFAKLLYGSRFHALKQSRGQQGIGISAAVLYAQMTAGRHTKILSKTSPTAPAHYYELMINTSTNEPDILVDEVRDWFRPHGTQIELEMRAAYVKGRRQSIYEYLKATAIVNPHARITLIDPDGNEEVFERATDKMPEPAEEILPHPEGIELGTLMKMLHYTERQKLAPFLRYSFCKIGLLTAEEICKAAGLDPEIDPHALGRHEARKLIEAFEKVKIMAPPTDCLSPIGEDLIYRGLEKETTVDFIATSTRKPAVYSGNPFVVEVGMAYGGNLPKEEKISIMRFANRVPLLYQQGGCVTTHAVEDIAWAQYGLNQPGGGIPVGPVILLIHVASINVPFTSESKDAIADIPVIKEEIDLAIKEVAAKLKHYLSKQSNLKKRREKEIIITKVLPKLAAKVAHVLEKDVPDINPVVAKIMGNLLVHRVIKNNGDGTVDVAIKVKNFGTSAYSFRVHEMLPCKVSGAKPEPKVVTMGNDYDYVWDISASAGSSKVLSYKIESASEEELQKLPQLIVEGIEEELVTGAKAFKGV
topo VI H2TH-AAA R263A,K268A,K308A (Methanosarcina mazei), one chain, as listed by the source R263A K268A K308A, chain 2 of 2: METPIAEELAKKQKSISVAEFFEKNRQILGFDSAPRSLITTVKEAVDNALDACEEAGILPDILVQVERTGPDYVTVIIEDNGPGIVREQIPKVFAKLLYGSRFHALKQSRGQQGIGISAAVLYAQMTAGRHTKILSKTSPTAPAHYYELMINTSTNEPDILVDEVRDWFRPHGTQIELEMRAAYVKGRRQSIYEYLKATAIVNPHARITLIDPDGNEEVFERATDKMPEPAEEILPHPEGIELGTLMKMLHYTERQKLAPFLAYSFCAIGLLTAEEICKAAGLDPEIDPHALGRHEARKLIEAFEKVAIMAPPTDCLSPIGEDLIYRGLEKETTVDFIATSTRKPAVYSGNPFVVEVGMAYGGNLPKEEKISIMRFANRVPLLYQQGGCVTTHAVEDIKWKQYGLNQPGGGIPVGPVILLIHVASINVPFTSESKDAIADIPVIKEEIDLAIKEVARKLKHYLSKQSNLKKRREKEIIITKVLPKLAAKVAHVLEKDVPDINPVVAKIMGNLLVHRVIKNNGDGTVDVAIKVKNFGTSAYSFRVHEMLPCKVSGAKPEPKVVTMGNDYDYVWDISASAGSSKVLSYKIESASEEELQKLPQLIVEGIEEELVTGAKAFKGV

Assays:
[1] = test system: topo VI Stalk/WKxY-EEE K399E,K401E,R457E (Methanosarcina mazei); experiment: fluorescence anisotropy; settings: FA: 20 nM probe, 50 mM K-glutamate, 20 mM HEPES-KOH pH 7.5, 10 mM MgCl2, 5% glycerol, 1 mM TCEP, 0.1 mg/mL BSA, incubated on ice, read at ambient temperature, recombinant protein, protein details: N-terminal His6-TEV on Top6B, removed, label: 5'-FAM strand 1
[2] = test system: topo VI Stalk/WKxY-AAA K399A,K401A,R457A (Methanosarcina mazei); experiment: fluorescence anisotropy; settings: FA: 20 nM probe, 50 mM K-glutamate, 20 mM HEPES-KOH pH 7.5, 10 mM MgCl2, 5% glycerol, 1 mM TCEP, 0.1 mg/mL BSA, incubated on ice, read at ambient temperature, recombinant protein, protein details: N-terminal His6-TEV on Top6B, removed, label: 5'-FAM strand 1
[3] = test system: topo VI H2TH-EEE R263E,K268E,K308E (Methanosarcina mazei); experiment: FRET DNA bending; settings: minor FRET change, no AMPPNP-dependent bending; recombinant protein; protein details: N-terminal His6-TEV on Top6B, removed; label: 5'-Cy5 strand 1, 5'-Cy5.5 strand 2
[4] = test system: topo VI H2TH-AAA R263A,K268A,K308A (Methanosarcina mazei); experiment: FRET DNA bending; settings: minor FRET change, no AMPPNP-dependent bending; recombinant protein; protein details: N-terminal His6-TEV on Top6B, removed; label: 5'-Cy5 strand 1, 5'-Cy5.5 strand 2
[5] = test system: topo VI Stalk/WKxY-EEE K399E,K401E,R457E (Methanosarcina mazei); experiment: FRET DNA bending; settings: minor FRET change, slow increase with AMPPNP; recombinant protein; protein details: N-terminal His6-TEV on Top6B, removed; label: 5'-Cy5 strand 1, 5'-Cy5.5 strand 2
[6] = test system: topo VI Stalk/WKxY-AAA K399A,K401A,R457A (Methanosarcina mazei); experiment: FRET DNA bending; settings: minor FRET change, slow increase with AMPPNP; recombinant protein; protein details: N-terminal His6-TEV on Top6B, removed; label: 5'-Cy5 strand 1, 5'-Cy5.5 strand 2
[7] = test system: topo VI H2TH-EEE R263E,K268E,K308E (Methanosarcina mazei); experiment: fluorescence anisotropy; settings: FA: 20 nM probe, 50 mM K-glutamate, 20 mM HEPES-KOH pH 7.5, 10 mM MgCl2, 5% glycerol, 1 mM TCEP, 0.1 mg/mL BSA, incubated on ice, read at ambient temperature, recombinant protein, protein details: N-terminal His6-TEV on Top6B, removed, label: 5'-FAM strand 1

Sequence: CTATTGAAAAAGGAAGAGTATGAGTATTCAACATTTCCGC (double strand) [40 bp duplex]
- binding result [1]: binds more weakly
- binding result [2]: binds more weakly

Sequence: CCAAATGCTTCAATAATATTGAAAAAGGAAGAGTATGAGTATTCAACATTTCCGTGTCGCCCTTATTCCC (double strand) [70 bp duplex Cy5/Cy5.5]
- binding result [3]: binds more weakly
- binding result [4]: binds more weakly
- binding result [5]: binds more weakly
- binding result [6]: binds more weakly

Sequence: CCAAATGCTTCAATAATATTGAAAAAGGAAGAGTATGAGTATTCAACATTTCCGTGTCGCCCTTATTCCC (double strand) [70 bp duplex]
- Kd ([7]; Hill h 1.7): 103 nM
- binding result [1]: binds more weakly
- binding result [2]: binds more weakly

Sequence: CAAAAAGGAAGAGTATGAGTATTCAACATC (double strand) [30 bp duplex]
- binding result ([1]; Kd not determined): binds more weakly
- binding result ([2]; Kd not determined): binds more weakly

Sequence: CGCTTCAATAATATTGAAAAAGGAAGAGTATGAGTATTCAACATTTCCGTGTCGCCCTTC (double strand) [60 bp duplex]
- Kd ([7]; Hill h 1.8): 109 nM
- binding result [1]: binds more weakly
- binding result [2]: binds more weakly
